Test: general procedure: solution-phase peptide synthesis
Settings: coupling step

Substance	step yield
Dov-Val-Dil-Dap-isopropylamide	96% yield
Dov-Val-Dil-Dap-methylamide	82%
